Patent US20120022228A1 (CENTRE NATIONAL DE LA RECHERCHE SCIENTIFIQUE, priority 2010, published 2012)

Assays:
[1] = general procedure: Fmoc solid-phase peptide synthesis; Fmoc-Thr(tBu)-Wang resin (0.7 mmol/g); settings: for step yield / final purity (method not given): purification step; for step yield: recovery
[2] = general procedure: Fmoc solid-phase peptide synthesis; Fmoc-Thr(tBu)-Wang resin; settings: whole synthesis, scale 3026 g resin (0.7 mmol/g)
[3] = whole synthesis, scale of the general procedure 3026 g resin

In the case of “H-Asp-Glu-Asn-Pro-Val-Val-His-Phe-Phe-Lys-Asn-Ile-Val-Thr-Pro-Arg-Thr-OH (DENPVVHFFKNIVTPRT; printed: Asp-Glu-Asn-Pro-Val-Val-His-Phe-Phe-Lys-Asn-Ile-Val-Thr-Pro-Arg-Thr-)”, the step yield ([1]; run 1) is reported as “recovery 22%”, the step yield ([1]; run 2) is reported as “recovery 35%” and the step yield ([1]; run 3) is reported as “recovery 36%”. The step yield ([1]; run 4) was “recovery 33%”, the step yield ([1]; run 5) was “recovery 48%” and the step yield ([1]; run 6) was “recovery 60%”. For the same substance, the step yield ([1]; run 7) was “recovery 69%”, the “final purity (method not given)” value ([1]; run 1) was 89% and the “final purity (method not given)” value ([1]; run 2) was 91%. For the same substance, the “final purity (method not given)” value ([1]; run 3) was 94%, the “final purity (method not given)” value ([1]; run 4) was 97% and the “final purity (method not given)” value ([1]; run 5) was 98%. For the same substance, the “final purity (method not given)” value ([1]; run 6) was 98%, the “final purity (method not given)” value ([1]; run 7) was 97% and the “crude purity (method not given)” value [1, 3] was 86%. For the same substance, the crude yield [1, 3] was 68% and the crude mass [2] was 4.171 kg.
